Laboratory results from patent US7592168B2, “Cephalosporin C acylase mutant and method for preparing 7-ACA using same” (Sandoz AG, priority 2003, dated 2009).

Experiment: Optimal reaction temperature and pH to CPC
Assay type: biochemical
Protocol: Further, as a result of examining the optimal reaction temperature and pH of the wild-type CPC acylase AcyII, the optimal reaction temperature and pH to CPC were 40° C. and 9.0, respectively.

B1: Wild-type: Pseudomonas sp. SE83 derived wild-type CPC acylase (AcyII), α-subunit SEQ ID NO: 4 and β-subunit SEQ ID NO: 5, from pBCPC (protein)
alpha: TMAAKTDREALQAALPPLSGSLSIPGLSAPVRVQRDGWGIPHIKASGEADAYRALGFVHAQDRLFQMELTRRKALGRAAEWLGAEAAEADILVRRLGMEKVCRRDFEALGAEAKDMLRAYVAGVNAFLASGAPLPIEYGLLGAEPEPWEPWHSIAVMRRLGLLMGSVWFKLWRMLALPVVGAANALKLRYDDGGQDLLCIPPGVEAERLEADLAALRPAVDALLKAMGG
beta: SNNWAVAPGRTATGRPILAGDPHRVFEIPGMYAQHHLACDRFDMIGLTVPGVPGFPHFAHNGKVAYCVTHAFMDIHDLYLEQFAEDGRTARFGNEFEPVAWRRDRIAVRGGADREFDIVETRHGPVIAGDPLEGAALTLRSVQFAETDLSFDCLTRMPGASTVAQLYDATRGWGLIDHNLVAGDVAGSIGHLVRARVPSRPRENGWLPVPGWSGEHEWRGWIPHEAMPRVIDPPGGLIVTANNRVVADDHPDYLCTDCHPPYRAERIMERLVASPAFAVDDAAAIHADTLSPHVGLLRARLEALGIQGSLPAEELRQTLIAWDGRMDAGSQAASAYNAFRRALTRLVTARSGLEQAIAHPFAAVPPGVSPQGQVWWAVPTLLRNDDAGMLKGWSWDEALSEALSVATQNLTGRGWGEEHRPRFTHPLSAQFPAWAALLNPVSRPIGGDGDTVLANGLVPSAGPEATYGALSRYVFDVGNWDNSRWVVFHGASGHPASPHYADQNAPWSDCAMVPMLYSWDRIAAEAVTSQELVPA
modifications: Pseudomonas sp. SE83
Which “optimal reaction pH to CPC” value does the source give for B1 here?
The value was 9.0.

And the “optimal reaction temperature to CPC” value?
The value was 40 °C.
